In PubChem BioAssay AID188 (DTP/NCI, 2004):
Shown are survivors of the treated group in tumour-free mice. Survivors were counted at the toxicity check, usually on the fifth day, unless a day is given; later deaths do not show. Schedule codes are those of the source, taken here to give the interval after Q, in days (D) or hours (H), and the number of doses after X.

System: CD2F1 mice, nontumored, toxicity/survival
Assay: NCI In Vivo Anticancer Drug Screen. Data for tumor model Nontumored Animals (Toxicity Test) in CD2F1 (CDF1) mice

COc1ccc(CC2C(=O)NC(C)C(=O)N(C)C3C(=O)N(C)C(Cc4ccc(O)c(c4)Oc4ccc(cc4)C3O)C(=O)NC(C)C(=O)NC(C)C(=O)N2C)cc1 (centres undefined)
survivor count (dose: 0.03 mg/kg/injection, schedule: Q01DX009 (ip), vehicle: Klucel (hydroxypropylcellulose) (HPC)): 6 of 6 | survivor count (dose: 0.03 mg/kg/injection, schedule: Q01DX009 (ip), vehicle: saline + alcohol): 5 of 6 | survivor count (dose: 0.06 mg/kg/injection, schedule: Q01DX009 (ip), vehicle: Klucel (hydroxypropylcellulose) (HPC)): 6 of 6 | survivor count (dose: 0.06 mg/kg/injection, schedule: Q01DX009 (ip), vehicle: saline + alcohol): 6 of 6 | survivor count (dose: 0.12 mg/kg/injection, schedule: Q01DX009 (ip), vehicle: Klucel (hydroxypropylcellulose) (HPC)): 5 of 6 | survivor count (dose: 0.12 mg/kg/injection, schedule: Q01DX009 (ip), vehicle: saline + alcohol): 6 of 6 | survivor count (dose: 0.13 mg/kg/injection, schedule: Q03HX024 (ip), vehicle: other): 8 of 8 | survivor count (dose: 0.25 mg/kg/injection, schedule: Q01DX005 (ip), vehicle: other): 8 of 8 | survivor count (dose: 0.25 mg/kg/injection, schedule: Q01DX005 (iv), vehicle: other): 8 of 8 | survivor count (dose: 0.25 mg/kg/injection, schedule: Q01DX009 (ip), vehicle: Klucel (hydroxypropylcellulose) (HPC)): 6 of 6 | survivor count (dose: 0.25 mg/kg/injection, schedule: Q01DX009 (ip), vehicle: other): 8 of 8 | survivor count (dose: 0.25 mg/kg/injection, schedule: Q01DX009 (ip), vehicle: saline + alcohol): 6 of 6 | survivor count (dose: 0.25 mg/kg/injection, schedule: Q01DX009 (sc), vehicle: other): 8 of 8 | survivor count (dose: 0.25 mg/kg/injection, schedule: Q03HX008 (ip), vehicle: other): 8 of 8 | survivor count (dose: 0.25 mg/kg/injection, schedule: Q03HX016 (ip), vehicle: other): 8 of 8 | survivor count (dose: 0.25 mg/kg/injection, schedule: Q03HX024 (ip), vehicle: other): 7 of 8 | survivor count (dose: 0.5 mg/kg/injection, schedule: Q01DX005 (ip), vehicle: other): 8 of 8 | survivor count (dose: 0.5 mg/kg/injection, schedule: Q01DX005 (iv), vehicle: other): 8 of 8 | survivor count (dose: 0.5 mg/kg/injection, schedule: Q01DX009 (ip), vehicle: Klucel (hydroxypropylcellulose) (HPC)): 5 of 6 | survivor count (dose: 0.5 mg/kg/injection, schedule: Q01DX009 (ip), vehicle: other): 8 of 8 | survivor count (dose: 0.5 mg/kg/injection, schedule: Q01DX009 (ip), vehicle: saline + alcohol): 6 of 6 | survivor count (dose: 0.5 mg/kg/injection, schedule: Q01DX009 (oral), vehicle: other): 8 of 8 | survivor count (dose: 0.5 mg/kg/injection, schedule: Q01DX009 (sc), vehicle: other): 8 of 8 | survivor count (dose: 0.5 mg/kg/injection, schedule: Q03HX008 (ip), vehicle: other): 5 of 8 | survivor count (dose: 0.5 mg/kg/injection, schedule: Q03HX016 (ip), vehicle: other): 7 of 8 | survivor count (dose: 0.5 mg/kg/injection, schedule: Q03HX024 (ip), vehicle: other): 6 of 8 | survivor count (dose: 0.5 mg/kg/injection, schedule: Q04DX003 (ip), vehicle: other): 8 of 8 | survivor count (dose: 1.0 mg/kg/injection, schedule: Q01DX001 (ip), vehicle: other): 8 of 8 | survivor count (dose: 1.0 mg/kg/injection, schedule: Q01DX001 (oral), vehicle: other): 8 of 8 | survivor count (dose: 1.0 mg/kg/injection, schedule: Q01DX005 (ip), vehicle: other): 8 of 8 | survivor count (dose: 1.0 mg/kg/injection, schedule: Q01DX005 (iv), vehicle: other): 8 of 8 | survivor count (dose: 1.0 mg/kg/injection, schedule: Q01DX009 (ip), vehicle: Klucel (hydroxypropylcellulose) (HPC)): 4 of 6 | survivor count (dose: 1.0 mg/kg/injection, schedule: Q01DX009 (ip), vehicle: other): 8 of 8 | survivor count (dose: 1.0 mg/kg/injection, schedule: Q01DX009 (ip), vehicle: saline + alcohol): 6 of 6 | survivor count (dose: 1.0 mg/kg/injection, schedule: Q01DX009 (oral), vehicle: other): 8 of 8 | survivor count (dose: 1.0 mg/kg/injection, schedule: Q01DX009 (sc), vehicle: other): 8 of 8 | survivor count (dose: 1.0 mg/kg/injection, schedule: Q03HX008 (ip), vehicle: other): 6 of 8 | survivor count (dose: 1.0 mg/kg/injection, schedule: Q03HX016 (ip), vehicle: other): 4 of 8 | survivor count (dose: 1.0 mg/kg/injection, schedule: Q03HX024 (ip), vehicle: other): 4 of 8 | survivor count (dose: 1.0 mg/kg/injection, schedule: Q04DX003 (ip), vehicle: other): 8 of 8 | survivor count (dose: 1.0 mg/kg/injection, schedule: Q08DX002 (ip), vehicle: other): 8 of 8 | survivor count (dose: 2.0 mg/kg/injection, schedule: Q01DX001 (ip), vehicle: other): 8 of 8 | survivor count (dose: 2.0 mg/kg/injection, schedule: Q01DX001 (oral), vehicle: other): 8 of 8 | survivor count (dose: 2.0 mg/kg/injection, schedule: Q01DX005 (ip), vehicle: other): 8 of 8 | survivor count (dose: 2.0 mg/kg/injection, schedule: Q01DX005 (iv), vehicle: other): 8 of 8 | survivor count (dose: 2.0 mg/kg/injection, schedule: Q01DX009 (ip), vehicle: Klucel (hydroxypropylcellulose) (HPC)): 6 of 6 | survivor count (dose: 2.0 mg/kg/injection, schedule: Q01DX009 (ip), vehicle: other): 8 of 8 | survivor count (dose: 2.0 mg/kg/injection, schedule: Q01DX009 (ip), vehicle: saline + alcohol): 5 of 6 | survivor count (dose: 2.0 mg/kg/injection, schedule: Q01DX009 (oral), vehicle: other): 8 of 8 | survivor count (dose: 2.0 mg/kg/injection, schedule: Q01DX009 (sc), vehicle: other): 8 of 8 | survivor count (dose: 2.0 mg/kg/injection, schedule: Q03HX008 (ip), vehicle: other): 0 of 8 | survivor count (dose: 2.0 mg/kg/injection, schedule: Q03HX016 (ip), vehicle: other): 0 of 8 | survivor count (dose: 2.0 mg/kg/injection, schedule: Q03HX024 (ip), vehicle: other): 0 of 8 | survivor count (dose: 2.0 mg/kg/injection, schedule: Q04DX003 (ip), vehicle: other): 8 of 8 | survivor count (dose: 2.0 mg/kg/injection, schedule: Q08DX002 (ip), vehicle: other): 8 of 8 | survivor count (dose: 4.0 mg/kg/injection, schedule: Q01DX001 (ip), vehicle: other): 8 of 8 | survivor count (dose: 4.0 mg/kg/injection, schedule: Q01DX001 (oral), vehicle: other): 8 of 8 | survivor count (dose: 4.0 mg/kg/injection, schedule: Q01DX005 (ip), vehicle: other): 8 of 8 | survivor count (dose: 4.0 mg/kg/injection, schedule: Q01DX005 (iv), vehicle: other): 2 of 8 | survivor count (dose: 4.0 mg/kg/injection, schedule: Q01DX009 (ip), vehicle: Klucel (hydroxypropylcellulose) (HPC)): 5 of 6 | survivor count (dose: 4.0 mg/kg/injection, schedule: Q01DX009 (ip), vehicle: other): 7 of 8 | survivor count (dose: 4.0 mg/kg/injection, schedule: Q01DX009 (ip), vehicle: saline + alcohol): 3 of 6 | survivor count (dose: 4.0 mg/kg/injection, schedule: Q01DX009 (oral), vehicle: other): 8 of 8 | survivor count (dose: 4.0 mg/kg/injection, schedule: Q01DX009 (sc), vehicle: other): 7 of 8 | survivor count (dose: 4.0 mg/kg/injection, schedule: Q03HX008 (ip), vehicle: other): 0 of 8 | survivor count (dose: 4.0 mg/kg/injection, schedule: Q03HX016 (ip), vehicle: other): 0 of 8 | survivor count (dose: 4.0 mg/kg/injection, schedule: Q04DX003 (ip), vehicle: other): 8 of 8 | survivor count (dose: 4.0 mg/kg/injection, schedule: Q08DX002 (ip), vehicle: other): 8 of 8 | survivor count (dose: 8.0 mg/kg/injection, schedule: Q01DX001 (ip), vehicle: other): 8 of 8 | survivor count (dose: 8.0 mg/kg/injection, schedule: Q01DX001 (oral), vehicle: other): 8 of 8 | survivor count (dose: 8.0 mg/kg/injection, schedule: Q01DX009 (oral), vehicle: other): 8 of 8 | survivor count (dose: 8.0 mg/kg/injection, schedule: Q04DX003 (ip), vehicle: other): 8 of 8 | survivor count (dose: 8.0 mg/kg/injection, schedule: Q08DX002 (ip), vehicle: other): 7 of 8 | survivor count (dose: 16.0 mg/kg/injection, schedule: Q01DX001 (ip), vehicle: other): 3 of 8 | survivor count (dose: 16.0 mg/kg/injection, schedule: Q01DX001 (oral), vehicle: other): 8 of 8 | survivor count (dose: 16.0 mg/kg/injection, schedule: Q08DX002 (ip), vehicle: other): 3 of 8

CC(=O)Oc1cc2c3c(c1)-c1c(ccc(OC(C)=O)c1OC(C)=O)CC3NCC2 (centres undefined)
survivor count (dose: 1.0 mg/kg/injection, schedule: Q01DX001 (ip), vehicle: DMSO): 2 of 2 | survivor count (dose: 10.0 mg/kg/injection, schedule: Q01DX001 (ip), vehicle: DMSO): 2 of 2 | survivor count (dose: 100.0 mg/kg/injection, schedule: Q01DX001 (ip), vehicle: DMSO): 0 of 2

CC12CCC(O)CC1CCC1C2CCC2(C)C(c3ccc(=O)oc3)CCC12O (centres undefined)
survivor count (dose: 0.5 mg/kg/injection, schedule: Q01DX001 (ip), vehicle: saline): 2 of 2 | survivor count (dose: 5.0 mg/kg/injection, schedule: Q01DX001 (ip), vehicle: saline): 2 of 2 | survivor count (dose: 50.0 mg/kg/injection, schedule: Q01DX001 (ip), vehicle: saline): 0 of 2

O=[N+]([O-])c1cnc[nH]1
survivor count (dose: 62.5 mg/kg/injection, schedule: Q01DX005 (ip), vehicle: saline with Tween-80): 3 of 3 | survivor count (dose: 125.0 mg/kg/injection, schedule: Q01DX005 (ip), vehicle: saline with Tween-80): 3 of 3 | survivor count (dose: 250.0 mg/kg/injection, schedule: Q01DX001 (ip), vehicle: saline with Tween-80): 3 of 3 | survivor count (dose: 250.0 mg/kg/injection, schedule: Q01DX005 (ip), vehicle: saline with Tween-80): 3 of 3 | survivor count (dose: 500.0 mg/kg/injection, schedule: Q01DX001 (ip), vehicle: saline with Tween-80): 3 of 3 | survivor count (dose: 500.0 mg/kg/injection, schedule: Q01DX005 (ip), vehicle: saline with Tween-80): 2 of 3 | survivor count (dose: 1000.0 mg/kg/injection, schedule: Q01DX001 (ip), vehicle: saline with Tween-80): 2 of 3
